Assay results as given in the supplement of paper PMC8728848.
The list shows a part of the results.

Experiments:
Experiment in all cases: glycan array binding signal (z-score within array); higher = stronger binding
Details in all cases: glycan notation: IUPAC condensed, linker removed
[1] = target: Fuc(a1-2)[GalNAc(a1-3)]Gal(b1-3)GlcNAc(b1-6)GalNAc
In short: (§1)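 Negative Z-scores can be read as non-binding. The Z-score is calculated within each array and then averaged across arrays of one protein sequence at different concentrations or buffers and across linkers. Arrays, 3228 in all, were curated from the Consortium for Functional Glycomics database and kept only where the protein sequence was available.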

[2] = target: Fuc(a1-2)[GalNAc(a1-3)]Gal(b1-4)Glc
In short: as §1

[3] = target: Fuc(a1-2)[GalNAc(a1-3)]Gal(b1-4)GlcNAc
In short: as §1

[4] = target: Fuc(a1-2)[GalNAc(a1-3)]Gal(b1-4)GlcNAc(b1-2)Man
In short: as §1

[5] = target: Fuc(a1-2)[GalNAc(a1-3)]Gal(b1-4)GlcNAc(b1-2)Man(a1-3)[Fuc(a1-2)[GalNAc(a1-3)]Gal(b1-4)GlcNAc(b1-2)Man(a1-6)]Man(b1-4)GlcNAc(b1-4)GlcNAc
In short: as §1

[6] = target: Fuc(a1-2)[GalNAc(a1-3)]Gal(b1-4)GlcNAc(b1-2)Man(a1-3)[Fuc(a1-2)[GalNAc(a1-3)]Gal(b1-4)GlcNAc(b1-2)Man(a1-6)]Man(b1-4)GlcNAc(b1-4)[Fuc(a1-6)]GlcNAc
In short: as §1

[7] = target: Fuc(a1-2)[GalNAc(a1-3)]Gal(b1-4)GlcNAc(b1-3)Gal(b1-4)GlcNAc
In short: as §1

[8] = target: Fuc(a1-2)[GalNAc(a1-3)]Gal(b1-4)GlcNAc(b1-3)Gal(b1-4)GlcNAc(b1-3)Gal(b1-4)GlcNAc
In short: as §1

[9] = target: Fuc(a1-2)[GalNAc(a1-3)]Gal(b1-4)GlcNAc(b1-3)GalNAc
In short: as §1

[10] = target: Fuc(a1-2)[GalNAc(a1-3)]Gal(b1-4)GlcNAc(b1-3)[Fuc(a1-2)[GalNAc(a1-3)]Gal(b1-4)GlcNAc(b1-6)]GalNAc
In short: as §1

[11] = target: Fuc(a1-2)[GalNAc(a1-3)]Gal(b1-4)GlcNAc(b1-6)GalNAc
In short: as §1

[12] = target: Fuc(a1-2)[GalNAc(a1-3)]Gal(b1-4)[Fuc(a1-3)]GlcNAc
In short: as §1

[13] = target: Fuc(a1-2)[GalNAc(a1-3)]Gal(b1-4)[Fuc(a1-3)]GlcNAc(b1-3)GalNAc
In short: as §1

[14] = target: Fuc(a1-2)[GalNAc(a1-4)]Gal(b1-4)GlcNAc
In short: as §1

[15] = target: Fuc(a1-2)[GalNAc(b1-3)]Gal
In short: as §1

[16] = target: Fuc(a1-3)GlcNAc
In short: as §1

[17] = target: Fuc(a1-3)[Gal(b1-4)]Glc6S
In short: as §1

[18] = target: Fuc(a1-3)[Gal(b1-4)]GlcNAc
In short: as §1

[19] = target: Fuc(a1-3)[Gal(b1-4)]GlcNAc(b1-2)Man
In short: as §1

[20] = target: Fuc(a1-3)[Gal(b1-4)]GlcNAc(b1-2)Man(a1-3)[Fuc(a1-3)[Gal(b1-4)]GlcNAc(b1-2)Man(a1-6)]Man(b1-4)GlcNAc(b1-4)GlcNAc
In short: as §1

[21] = target: Fuc(a1-3)[Gal(b1-4)]GlcNAc(b1-2)Man(a1-3)[Fuc(a1-3)[Gal(b1-4)]GlcNAc(b1-2)Man(a1-6)]Man(b1-4)GlcNAc(b1-4)[Fuc(a1-6)]GlcNAc
In short: as §1

[22] = target: Fuc(a1-3)[Gal(b1-4)]GlcNAc(b1-3)Gal(b1-3)[Fuc(a1-4)]GlcNAc
In short: as §1

[23] = target: Fuc(a1-3)[Gal(b1-4)]GlcNAc(b1-3)GalNAc
In short: as §1

[24] = target: Fuc(a1-3)[Gal(b1-4)]GlcNAc(b1-4)Gal(b1-4)[Fuc(a1-3)]GlcNAc
In short: as §1

[25] = target: Fuc(a1-3)[Gal(b1-4)]GlcNAc(b1-4)Gal(b1-4)[Fuc(a1-3)]GlcNAc(b1-4)Gal(b1-4)[Fuc(a1-3)]GlcNAc
In short: as §1

[26] = target: Fuc(a1-3)[Gal(b1-4)]GlcNAc(b1-6)GalNAc
In short: as §1

[27] = target: Fuc(a1-3)[Gal(b1-4)]GlcNAc(b1-6)[Gal(b1-3)GlcNAc(b1-3)]Gal(b1-4)Glc
In short: as §1

[28] = target: Fuc(a1-3)[Gal(b1-4)]GlcNAc6S
In short: as §1

[29] = target: Fuc(a1-3)[Gal3S(b1-4)]Glc
In short: as §1

[30] = target: Fuc(a1-3)[Gal3S(b1-4)]GlcNAc
In short: as §1

[31] = target: Fuc(a1-3)[Gal3S(b1-4)]GlcNAc6S
In short: as §1

[32] = target: Fuc(a1-3)[GalNAc(b1-4)]GlcNAc
In short: as §1

[33] = target: Fuc(a1-3)[GalNAc(b1-4)]GlcNAc6S
In short: as §1

[34] = target: Fuc(a1-4)GlcNAc
In short: as §1

[35] = target: Fuc(b1-3)GlcNAc
In short: as §1

[36] = target: Gal(a1-2)Gal
In short: as §1

[37] = target: Gal(a1-3)Gal
In short: as §1

[38] = target: Gal(a1-3)Gal(b1-3)GlcNAc
In short: as §1

[39] = target: Gal(a1-3)Gal(b1-3)GlcNAc(b1-2)Man
In short: as §1

[40] = target: Gal(a1-3)Gal(b1-3)GlcNAc(b1-2)Man(a1-3)[Gal(a1-3)Gal(b1-3)GlcNAc(b1-2)Man(a1-6)]Man(b1-4)GlcNAc(b1-4)GlcNAc
In short: as §1

[41] = target: Gal(a1-3)Gal(b1-3)GlcNAc(b1-3)GalNAc
In short: as §1

[42] = target: Gal(a1-3)Gal(b1-3)GlcNAc(b1-6)GalNAc
In short: as §1

[43] = target: Gal(a1-3)Gal(b1-3)[Fuc(a1-4)]GlcNAc(b1-2)Man(a1-3)[Gal(a1-3)Gal(b1-3)[Fuc(a1-4)]GlcNAc(b1-2)Man(a1-6)]Man(b1-4)GlcNAc(b1-4)GlcNAc
In short: as §1

[44] = target: Gal(a1-3)Gal(b1-4)Glc
In short: as §1

[45] = target: Gal(a1-3)Gal(b1-4)GlcNAc
In short: as §1

B1: HopZSSI-T (Helicobacter pylori), B5Z6D0 (protein)
chain: MGSSHHHHHHSSGLVPRGSHMENLYFQGEDNGFFISAGYQIGEAAQMVKNTGELKKLSDTYENLSNLLTNFNNLNQAVTNASSPSEINAAIDNLKANTQGLTGEKTNSPAYQAVYLALNAAVGLWNVIAYNVQCGPGNSSQQSVTFEGQPGHNSSSINCNLTGYNNGVSGPLSIDNFKQLNQAYQVLQQALKQGVPVLNNTNQKIEVKVTTQTNGQSSKETTTTTTTNDAQTLLQEASKMIDVLTTNCPWVNHNPGQNGGAPWGLIRQECVSGFATEFSAVTSMIKNAQEIVTQAQSLNANQNNQNAPQDFNPYTSADRAFAQNMLNHAQAQAKILELADQMKKDLNTIPSQFITNYLAACRIDGTTPSQGVTNNTWGAGCAYVEETITALNNSLAHFGTQAEQIKQSELLARTILDFRGSLSTLNSTYNSITTTASNTPNSPFLKNLISQSTNPNNPGGLQAVYQVNQSAYSQLLSATQELGHNPFRRIGLISSQT
[1]
  glycan array binding signal (z-score): -0.913
[2]
  glycan array binding signal (z-score): -0.824
[3]
  glycan array binding signal (z-score): -0.282
[4]
  glycan array binding signal (z-score): -0.475
[5]
  glycan array binding signal (z-score): -0.544
[6]
  glycan array binding signal (z-score): 0.494
[7]
  glycan array binding signal (z-score): -0.116
[8]
  glycan array binding signal (z-score): 0.205
[9]
  glycan array binding signal (z-score): 1
[10]
  glycan array binding signal (z-score): 0.499
[11]
  glycan array binding signal (z-score): -0.464
[12]
  glycan array binding signal (z-score): -0.057
[13]
  glycan array binding signal (z-score): 0.538
[14]
  glycan array binding signal (z-score): -0.372
[15]
  glycan array binding signal (z-score): -0.815
[16]
  glycan array binding signal (z-score): 0.003
[17]
  glycan array binding signal (z-score): 0.491
[18]
  glycan array binding signal (z-score): -0.439
[19]
  glycan array binding signal (z-score): -0.196
[20]
  glycan array binding signal (z-score): -0.248
[21]
  glycan array binding signal (z-score): -0.378
[22]
  glycan array binding signal (z-score): -0.274
[23]
  glycan array binding signal (z-score): 0.356
[24]
  glycan array binding signal (z-score): -0.536
[25]
  glycan array binding signal (z-score): -0.481
[26]
  glycan array binding signal (z-score): -0.281
[27]
  glycan array binding signal (z-score): 0.695
[28]
  glycan array binding signal (z-score): 0.325
[29]
  glycan array binding signal (z-score): -0.004
[30]
  glycan array binding signal (z-score): -0.516
[31]
  glycan array binding signal (z-score): -0.323
[32]
  glycan array binding signal (z-score): 0.22
[33]
  glycan array binding signal (z-score): -0.687
[34]
  glycan array binding signal (z-score): -0.633
[35]
  glycan array binding signal (z-score): -0.276
[36]
  glycan array binding signal (z-score): 1.3
[37]
  glycan array binding signal (z-score): 0.3
[38]
  glycan array binding signal (z-score): -0.08
[39]
  glycan array binding signal (z-score): -0.282
[40]
  glycan array binding signal (z-score): -0.389
[41]
  glycan array binding signal (z-score): -0.82
[42]
  glycan array binding signal (z-score): 0.157
[43]
  glycan array binding signal (z-score): 0.896
[44]
  glycan array binding signal (z-score): 0.533
[45]
  glycan array binding signal (z-score): -0.403
